Our source for the binding values is article PMC10070477.

Chains of the proteins cited; added tags and fusions are not shown.
UniProt Q9BSK0: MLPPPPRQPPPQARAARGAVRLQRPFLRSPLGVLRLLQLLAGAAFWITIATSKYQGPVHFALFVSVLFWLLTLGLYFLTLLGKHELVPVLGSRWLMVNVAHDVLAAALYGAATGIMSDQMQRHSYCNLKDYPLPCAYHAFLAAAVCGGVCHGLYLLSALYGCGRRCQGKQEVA
UniProt P09874: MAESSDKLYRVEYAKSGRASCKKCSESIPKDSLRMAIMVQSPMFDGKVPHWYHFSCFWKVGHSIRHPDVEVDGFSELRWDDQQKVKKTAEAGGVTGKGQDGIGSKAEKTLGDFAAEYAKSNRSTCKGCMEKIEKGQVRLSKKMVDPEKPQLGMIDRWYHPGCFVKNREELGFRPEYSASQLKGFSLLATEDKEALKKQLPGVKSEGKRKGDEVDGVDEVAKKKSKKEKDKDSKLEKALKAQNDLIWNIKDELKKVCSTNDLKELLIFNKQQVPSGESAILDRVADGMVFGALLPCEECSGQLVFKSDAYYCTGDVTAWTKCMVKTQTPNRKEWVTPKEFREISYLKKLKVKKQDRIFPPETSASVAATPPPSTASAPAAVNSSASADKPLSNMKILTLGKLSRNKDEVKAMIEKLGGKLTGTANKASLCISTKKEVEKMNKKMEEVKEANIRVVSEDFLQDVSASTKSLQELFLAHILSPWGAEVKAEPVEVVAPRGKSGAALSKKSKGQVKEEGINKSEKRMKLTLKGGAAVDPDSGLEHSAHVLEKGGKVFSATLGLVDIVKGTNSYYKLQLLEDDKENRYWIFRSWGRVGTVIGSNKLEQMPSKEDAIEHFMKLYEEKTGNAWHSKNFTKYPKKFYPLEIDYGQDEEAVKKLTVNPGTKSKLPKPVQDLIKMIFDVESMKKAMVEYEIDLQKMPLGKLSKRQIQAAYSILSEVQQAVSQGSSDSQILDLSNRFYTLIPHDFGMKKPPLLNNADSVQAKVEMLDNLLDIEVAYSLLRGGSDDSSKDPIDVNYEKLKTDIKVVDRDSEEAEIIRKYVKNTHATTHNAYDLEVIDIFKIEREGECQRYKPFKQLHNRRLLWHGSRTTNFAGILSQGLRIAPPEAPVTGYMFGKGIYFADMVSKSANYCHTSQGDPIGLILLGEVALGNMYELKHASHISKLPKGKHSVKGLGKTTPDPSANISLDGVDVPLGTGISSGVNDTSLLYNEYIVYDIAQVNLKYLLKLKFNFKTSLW
UniProt Q7Z2W4: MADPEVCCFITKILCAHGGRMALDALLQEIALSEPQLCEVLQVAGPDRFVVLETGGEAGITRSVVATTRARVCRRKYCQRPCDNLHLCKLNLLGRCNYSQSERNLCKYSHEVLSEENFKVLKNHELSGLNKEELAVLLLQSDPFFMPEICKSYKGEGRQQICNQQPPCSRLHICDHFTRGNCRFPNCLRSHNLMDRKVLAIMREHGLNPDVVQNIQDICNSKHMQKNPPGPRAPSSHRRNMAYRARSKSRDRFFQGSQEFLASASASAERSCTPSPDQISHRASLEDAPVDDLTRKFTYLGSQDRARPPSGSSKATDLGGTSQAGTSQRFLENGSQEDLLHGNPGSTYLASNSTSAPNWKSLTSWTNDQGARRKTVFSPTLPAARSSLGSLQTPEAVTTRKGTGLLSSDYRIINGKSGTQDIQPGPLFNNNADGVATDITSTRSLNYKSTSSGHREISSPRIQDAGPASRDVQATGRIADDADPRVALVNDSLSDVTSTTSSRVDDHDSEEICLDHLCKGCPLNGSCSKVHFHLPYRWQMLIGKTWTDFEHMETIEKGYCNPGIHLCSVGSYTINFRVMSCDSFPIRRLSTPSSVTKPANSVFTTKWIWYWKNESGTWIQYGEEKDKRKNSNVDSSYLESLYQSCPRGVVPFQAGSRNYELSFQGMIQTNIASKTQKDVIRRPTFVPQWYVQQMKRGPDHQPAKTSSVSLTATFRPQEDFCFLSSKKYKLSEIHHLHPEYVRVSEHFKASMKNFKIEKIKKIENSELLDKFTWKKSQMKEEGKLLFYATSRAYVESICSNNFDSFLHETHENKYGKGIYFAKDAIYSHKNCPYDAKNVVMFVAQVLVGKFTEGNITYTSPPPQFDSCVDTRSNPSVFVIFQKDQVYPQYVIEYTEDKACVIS
UniProt P11940: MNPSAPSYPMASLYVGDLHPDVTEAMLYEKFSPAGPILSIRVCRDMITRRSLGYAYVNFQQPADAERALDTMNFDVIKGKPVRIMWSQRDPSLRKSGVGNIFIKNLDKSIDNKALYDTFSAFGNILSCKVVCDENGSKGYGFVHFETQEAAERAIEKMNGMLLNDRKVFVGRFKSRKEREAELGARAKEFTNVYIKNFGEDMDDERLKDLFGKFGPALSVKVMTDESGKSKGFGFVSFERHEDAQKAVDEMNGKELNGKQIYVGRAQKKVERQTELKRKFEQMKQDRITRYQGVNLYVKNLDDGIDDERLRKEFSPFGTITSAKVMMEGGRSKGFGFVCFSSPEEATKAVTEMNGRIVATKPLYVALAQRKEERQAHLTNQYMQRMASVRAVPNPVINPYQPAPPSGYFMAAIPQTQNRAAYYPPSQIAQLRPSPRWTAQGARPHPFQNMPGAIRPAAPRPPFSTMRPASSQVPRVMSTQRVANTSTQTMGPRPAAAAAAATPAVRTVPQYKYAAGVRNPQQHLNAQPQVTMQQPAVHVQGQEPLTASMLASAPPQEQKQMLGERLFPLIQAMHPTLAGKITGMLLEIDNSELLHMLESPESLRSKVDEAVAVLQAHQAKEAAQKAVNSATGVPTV
UniProt P15559: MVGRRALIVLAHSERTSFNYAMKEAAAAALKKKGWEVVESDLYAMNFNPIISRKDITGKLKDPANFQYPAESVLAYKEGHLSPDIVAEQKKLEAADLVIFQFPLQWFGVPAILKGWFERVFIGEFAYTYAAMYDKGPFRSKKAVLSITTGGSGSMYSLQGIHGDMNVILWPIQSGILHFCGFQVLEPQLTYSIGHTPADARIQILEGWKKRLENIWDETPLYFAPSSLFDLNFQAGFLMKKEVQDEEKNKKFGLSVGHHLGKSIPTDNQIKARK
UniProt Q99497: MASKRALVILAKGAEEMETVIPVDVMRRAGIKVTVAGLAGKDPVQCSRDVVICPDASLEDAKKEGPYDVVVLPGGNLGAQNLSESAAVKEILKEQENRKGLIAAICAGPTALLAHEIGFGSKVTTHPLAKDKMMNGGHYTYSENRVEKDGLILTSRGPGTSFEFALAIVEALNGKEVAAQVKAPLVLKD
UniProt Q16531: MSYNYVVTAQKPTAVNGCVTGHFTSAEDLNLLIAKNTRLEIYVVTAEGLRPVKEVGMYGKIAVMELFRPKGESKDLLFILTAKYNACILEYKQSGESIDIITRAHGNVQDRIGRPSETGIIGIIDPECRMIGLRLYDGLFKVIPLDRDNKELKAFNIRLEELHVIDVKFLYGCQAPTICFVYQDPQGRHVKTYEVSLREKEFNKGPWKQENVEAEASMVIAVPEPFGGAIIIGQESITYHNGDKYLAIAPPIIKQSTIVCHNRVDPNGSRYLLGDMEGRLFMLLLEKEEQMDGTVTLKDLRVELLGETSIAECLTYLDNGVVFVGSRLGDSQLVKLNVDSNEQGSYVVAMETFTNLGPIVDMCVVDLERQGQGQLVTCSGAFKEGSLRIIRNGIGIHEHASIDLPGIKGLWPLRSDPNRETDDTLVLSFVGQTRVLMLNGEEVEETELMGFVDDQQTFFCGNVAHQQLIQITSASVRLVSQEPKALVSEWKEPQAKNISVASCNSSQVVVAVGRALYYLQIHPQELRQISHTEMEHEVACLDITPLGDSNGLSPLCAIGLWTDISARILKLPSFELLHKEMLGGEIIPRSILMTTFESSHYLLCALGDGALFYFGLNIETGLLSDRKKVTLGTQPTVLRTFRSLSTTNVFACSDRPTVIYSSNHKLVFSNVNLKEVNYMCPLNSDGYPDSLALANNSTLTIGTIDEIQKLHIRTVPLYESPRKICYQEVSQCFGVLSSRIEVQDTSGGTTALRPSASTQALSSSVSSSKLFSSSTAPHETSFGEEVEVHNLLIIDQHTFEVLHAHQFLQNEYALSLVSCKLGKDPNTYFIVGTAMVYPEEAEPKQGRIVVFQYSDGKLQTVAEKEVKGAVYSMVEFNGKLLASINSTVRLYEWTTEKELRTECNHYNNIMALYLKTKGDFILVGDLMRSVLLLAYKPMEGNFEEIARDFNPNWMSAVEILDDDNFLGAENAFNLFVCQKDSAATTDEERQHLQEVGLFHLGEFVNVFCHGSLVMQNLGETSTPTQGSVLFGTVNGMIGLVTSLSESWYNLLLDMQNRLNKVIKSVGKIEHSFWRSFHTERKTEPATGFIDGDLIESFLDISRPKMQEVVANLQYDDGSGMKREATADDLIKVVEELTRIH

No constants are given. Whether binding was seen depends on the method and setting. Binding seen in cells or lysates may run through a third protein. These calls come from enrichment with a bait or labelling near it, and not all partners need be listed.

B1: MCM subunit 6 (protein, UniProt Q14566 1-821)
chain: MDLAAAAEPGAGSQHLEVRDEVAEKCQKLFLDFLEEFQSSDGEIKYLQLAEELIRPERNTLVVSFVDLEQFNQQLSTTIQEEFYRVYPYLCRALKTFVKDRKEIPLAKDFYVAFQDLPTRHKIRELTSSRIGLLTRISGQVVRTHPVHPELVSGTFLCLDCQTVIRDVEQQFKYTQPNICRNPVCANRRRFLLDTNKSRFVDFQKVRIQETQAELPRGSIPRSLEVILRAEAVESAQAGDKCDFTGTLIVVPDVSKLSTPGARAETNSRVSGVDGYETEGIRGLRALGVRDLSYRLVFLACCVAPTNPRFGGKELRDEEQTAESIKNQMTVKEWEKVFEMSQDKNLYHNLCTSLFPTIHGNDEVKRGVLLMLFGGVPKTTGEGTSLRGDINVCIVGDPSTAKSQFLKHVEEFSPRAVYTSGKASSAAGLTAAVVRDEESHEFVIEAGALMLADNGVCCIDEFDKMDVRDQVAIHEAMEQQTISITKAGVKATLNARTSILAAANPISGHYDRSKSLKQNINLSAPIMSRFDLFFILVDECNEVTDYAIARRIVDLHSRIEESIDRVYSLDDIRRYLLFARQFKPKISKESEDFIVEQYKHLRQRDGSGVTKSSWRITVRQLESMIRLSEAMARMHCCDEVQPKHVKEAFRLLNKSIIRVETPDVNLDQEEEIQMEVDEGAGGINGHADSPAPVNGINGYNEDINQESAPKASLRLGFSEYCRISNLIVLHLRKVEEEEDESALKRSELVNWYLKEIESEIDSEEELINKKRIIEKVIHRLTHYDHVLIELTQAGLKGSTEGSESYEEDPYLVVNPNYLLED
B2: MCM subunit 5 (protein, UniProt P33992 1-734)
chain: MSGFDDPGIFYSDSFGGDAQADEGQARKSQLQRRFKEFLRQYRVGTDRTGFTFKYRDELKRHYNLGEYWIEVEMEDLASFDEDLADYLYKQPAEHLQLLEEAAKEVADEVTRPRPSGEEVLQDIQVMLKSDASPSSIRSLKSDMMSHLVKIPGIIIAASAVRAKATRISIQCRSCRNTLTNIAMRPGLEGYALPRKCNTDQAGRPKCPLDPYFIMPDKCKCVDFQTLKLQELPDAVPHGEMPRHMQLYCDRYLCDKVVPGNRVTIMGIYSIKKFGLTTSRGRDRVGVGIRSSYIRVLGIQVDTDGSGRSFAGAVSPQEEEEFRRLAALPNVYEVISKSIAPSIFGGTDMKKAIACLLFGGSRKRLPDGLTRRGDINLLMLGDPGTAKSQLLKFVEKCSPIGVYTSGKGSSAAGLTASVMRDPSSRNFIMEGGAMVLADGGVVCIDEFDKMREDDRVAIHEAMEQQTISIAKAGITTTLNSRCSVLAAANSVFGRWDETKGEDNIDFMPTILSRFDMIFIVKDEHNEERDVMLAKHVITLHVSALTQTQAVEGEIDLAKLKKFIAYCRVKCGPRLSAEAAEKLKNRYIIMRSGARQHERDSDRRSSIPITVRQLEAIVRIAEALSKMKLQPFATEADVEEALRLFQVSTLDAALSGTLSGVEGFTSQEDQEMLSRIEKQLKRRFAIGSQVSEHSIIKDFTKQKYPEHAIHKVLQLMLRRGEIQHRMQRKVLYRLK
B3: MCM subunit 3 (protein, UniProt P25205 1-808)
chain: MAGTVVLDDVELREAQRDYLDFLDDEEDQGIYQSKVRELISDNQYRLIVNVNDLRRKNEKRANRLLNNAFEELVAFQRALKDFVASIDATYAKQYEEFYVGLEGSFGSKHVSPRTLTSCFLSCVVCVEGIVTKCSLVRPKVVRSVHYCPATKKTIERRYSDLTTLVAFPSSSVYPTKDEENNPLETEYGLSVYKDHQTITIQEMPEKAPAGQLPRSVDVILDDDLVDKAKPGDRVQVVGTYRCLPGKKGGYTSGTFRTVLIACNVKQMSKDAQPSFSAEDIAKIKKFSKTRSKDIFDQLAKSLAPSIHGHDYVKKAILCLLLGGVERDLENGSHIRGDINILLIGDPSVAKSQLLRYVLCTAPRAIPTTGRGSSGVGLTAAVTTDQETGERRLEAGAMVLADRGVVCIDEFDKMSDMDRTAIHEVMEQGRVTIAKAGIHARLNARCSVLAAANPVYGRYDQYKTPMENIGLQDSLLSRFDLLFIMLDQMDPEQDREISDHVLRMHRYRAPGEQDGDAMPLGSAVDILATDDPNFSQEDQQDTQIYEKHDNLLHGTKKKKEKMVSAAFMKKYIHVAKIIKPVLTQESATYIAEEYSRLRSQDSMSSDTARTSPVTARTLETLIRLATAHAKARMSKTVDLQDAEEAVELVQYAYFKKVLEKEKKRKKRSEDESETEDEEEKSQEDQEQKRKRRKTRQPDAKDGDSYDPYDFSDTEEEMPQVHTPKTADSQETKESQKVELSESRLKAFKVALLDVFREAHAQSIGMNRLTESINRDSEEPFSSVEIQAALSKMQDDNQVMVSEGIIFLI
B4: IDH3a (protein, UniProt P50213 28-366)
chain: TGGVQTVTLIPGDGIGPEISAAVMKIFDAAKAPIQWEERNVTAIQGPGGKWMIPSEAKESMDKNKMGLKGPLKTPIAAGHPSMNLLLRKTFDLYANVRPCVSIEGYKTPYTDVNIVTIRENTEGEYSGIEHVIVDGVVQSIKLITEGASKRIAEFAFEYARNNHRSNVTAVHKANIMRMSDGLFLQKCREVAESCKDIKFNEMYLDTVCLNMVQDPSQFDVLVMPNLYGDILSDLCAGLIGGLGVTPSGNIGANGVAIFESVHGTAPDIAGKDMANPTALLLSAVMMLRHMGLFDHAARIEAACFATIKDGKSLTKDLGGNAKCSDFTEEICRRVKDLD

For one test, the target named is MARVELD1-Flag (UniProt Q9BSK0). As to the kind of experiment: affinity purification with mass spectrometry; HeLa transfected with MARVELD1-Flag or pcDNA3.1, 8 mM hydroxyurea or DMSO for 24 h; IP with anti-DYKDDDDK magnetic agarose, washed five times with PBS, SDS-PAGE, LC-MS/MS; ratio over control of more than 2.
As to “Poly(ADP-ribose) polymerase 1 (PARP1) (from UniProt P09874 1-1014)”, the binding entry is “binds”.

ZC3HAV1 (from UniProt Q7Z2W4 1-902): the binding entry is reported as “binds”. On the same count and under the same terms, under PABPC1 (from UniProt P11940 1-636) stands “binds”; under NQO1 (from UniProt P15559 1-274), “binds”. With PARK7 (from UniProt Q99497 1-189), the binding entry is reported as “binds”. DDB1 (from UniProt Q16531 1-1140): the binding entry is recorded as “binds”.

A further test addresses MARVELD1-Flag (UniProt Q9BSK0). Described as above. This is another data set of the same source.
For the molecule B1, the binding result is “binds”. On the same count and under the same terms, under B2 stands “binds”; under B3, “binds”.

With B4, the binding result is on record as “binds”.
